The values below come from publication PMC7862700.

Protein sequences, listed by entry. Tags and fused reporters are not part of them. Lines headed by an entry give the natural chain unless they say otherwise; changes in a name come on top.
UniProt Q9Y603: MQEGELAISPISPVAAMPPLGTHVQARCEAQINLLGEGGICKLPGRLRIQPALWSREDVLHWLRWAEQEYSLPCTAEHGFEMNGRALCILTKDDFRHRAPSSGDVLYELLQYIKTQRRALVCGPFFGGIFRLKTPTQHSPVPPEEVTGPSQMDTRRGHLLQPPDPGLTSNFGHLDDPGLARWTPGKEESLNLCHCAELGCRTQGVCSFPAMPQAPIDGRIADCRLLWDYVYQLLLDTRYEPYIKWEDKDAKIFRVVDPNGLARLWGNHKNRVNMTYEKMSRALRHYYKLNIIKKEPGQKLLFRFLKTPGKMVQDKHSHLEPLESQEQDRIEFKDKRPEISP
UniProt P41212: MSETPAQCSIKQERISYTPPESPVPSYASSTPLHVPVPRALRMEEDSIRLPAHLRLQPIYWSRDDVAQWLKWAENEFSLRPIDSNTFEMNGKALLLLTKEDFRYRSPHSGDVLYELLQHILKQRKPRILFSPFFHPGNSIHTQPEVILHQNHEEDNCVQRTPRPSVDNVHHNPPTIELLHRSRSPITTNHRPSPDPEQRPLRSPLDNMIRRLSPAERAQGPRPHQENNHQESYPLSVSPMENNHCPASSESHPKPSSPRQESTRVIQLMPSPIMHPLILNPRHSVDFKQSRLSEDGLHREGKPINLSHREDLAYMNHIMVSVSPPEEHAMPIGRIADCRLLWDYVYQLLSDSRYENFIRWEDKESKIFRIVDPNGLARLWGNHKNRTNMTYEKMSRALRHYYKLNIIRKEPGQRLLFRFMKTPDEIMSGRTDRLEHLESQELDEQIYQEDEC

Only a part is listed here, and it is no random draw. At the low end of the ranking the order means little.

For the first assay, the target named is T1, ELF3 (UniProt P78545).
T1 sequence: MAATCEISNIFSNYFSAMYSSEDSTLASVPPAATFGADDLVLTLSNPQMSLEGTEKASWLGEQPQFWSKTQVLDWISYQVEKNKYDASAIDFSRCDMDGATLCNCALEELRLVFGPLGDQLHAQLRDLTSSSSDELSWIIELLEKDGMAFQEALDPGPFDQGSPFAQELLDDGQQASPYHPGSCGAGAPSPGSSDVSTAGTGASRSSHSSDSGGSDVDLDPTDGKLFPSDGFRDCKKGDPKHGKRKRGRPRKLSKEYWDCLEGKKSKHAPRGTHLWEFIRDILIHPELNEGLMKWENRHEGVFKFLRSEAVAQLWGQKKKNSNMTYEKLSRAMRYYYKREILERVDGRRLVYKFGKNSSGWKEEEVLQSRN
The assay is described as follows: DAPPL (digital affinity profiling via proximity ligation, sequencing). Particulars: 10 mM Tris-HCl pH 7.5, 50 mM NaCl, 1 mM DTT, 4% glycerol, room temperature, 30 min; GST-TFs on glutathione beads, 16-mer random dsDNA library, 0.1% …; high values mean tight binding; double strand, one strand shown; scale: fold enrichment (6-mer frequency, TF over GST control).
Sequence TAGCGC gave a binding signal of 0.944.
On the same count and under the same terms, the same measure for GTGTAC: 0.823.
For TCAGAC, the binding signal worked out at 0.832.
Regarding CAGATC, the binding signal worked out at 0.9.
In turn, CGGGCT came in with a binding signal of 0.959.
Consider TGGGTT, for which the binding signal is 1.11.
The same measure, in the same setting: the same measure for TGAAGC: 0.804; for CCTAAT: 1.52.
Same read-out and setting: the same measure for TGGTGG: 0.922; for GTGGTA: 0.812.
Same read-out and setting: as for CCCTGA, the figure is 0.964; as for AGCCAC, 1.06.
In the case of GATTGC, the binding signal came out at 0.968.
Turning to CGAAGA, the binding signal stood at 0.776.
The same measure, in the same setting: the same measure for GCAGAT: 0.958.
Same read-out and setting: the same measure for TCGCGA: 0.822.
On the same count and under the same terms, the same measure for TAAGTC: 0.936.
Sequence TCATAA yielded a binding signal of 0.931.
On the same count and under the same terms, as for CATTGG, the figure is 0.965; as for TCCAGA, 0.852; as for GTGATG, 0.934.
Still for that read-out and setting: the same measure for GATTAG: 0.833; for GATCAA: 0.911.
In turn, AGATGG gave a binding signal of 0.977.
Still for that read-out and setting: the same measure for GGATCT: 0.932.
On to ACAGAA, for which the binding signal stood at 0.929.
The same measure, in the same setting: as for CTGTAG, the figure is 0.861; as for CTTGAG, 0.944; as for CAAGCT, 0.91.
In turn, GGATCA had a binding signal of 0.796.
Still for that read-out and setting: the same measure for AACGCG: 1.02; for TGGGAC: 0.767.
Still for that read-out and setting: the same measure for GGAATG: 0.954.
The same measure, in the same setting: the same measure for GTTGCG: 0.981; for GATTTG: 0.884.
The sequence AGCACG came in with a binding signal of 0.894.
TCGAGT: the binding signal is 0.907.
Same read-out and setting: as for ATAGTG, the figure is 0.853.
The same measure, in the same setting: as for CGCTGT, the figure is 0.965.

The next assay has as its target ETV7 (UniProt Q9Y603). Described as above. Particulars: 10 mM Tris-HCl pH 7.5, 50 mM NaCl, 1 mM DTT, 4% glycerol, room temperature, 30 min; GST-TFs on glutathione beads, 16-mer random dsDNA library, 0.1% …; high values mean tight binding; double strand, one strand shown; scale: fold enrichment (6-mer frequency, TF over GST control).
TAGCGC returned a binding signal of 0.941.
The sequence GTGTAC showed a binding signal of 0.999.
The same measure, in the same setting: as for TCAGAC, the figure is 0.853; as for CAGATC, 0.92; as for CGGGCT, 0.994.
In turn, TGGGTT gave a binding signal of 0.999.
In the case of TGAAGC, the binding signal stood at 0.96.
The same measure, in the same setting: as for CCTAAT, the figure is 1.31; as for TGGTGG, 1.09; as for GTGGTA, 0.961.
On the same count and under the same terms, the same measure for CCCTGA: 0.981; for AGCCAC: 0.915.
On the same count and under the same terms, as for GATTGC, the figure is 1.03.
Sequence CGAAGA yielded a binding signal of 0.771.
Still for that read-out and setting: the same measure for GCAGAT: 0.831; for TCGCGA: 0.923.
Still for that read-out and setting: the same measure for TAAGTC: 0.962.
Same read-out and setting: as for TCATAA, the figure is 0.993; as for CATTGG, 0.951.
Consider TCCAGA, for which the binding signal was found to be 0.803.
Still for that read-out and setting: as for GTGATG, the figure is 0.881; as for GATTAG, 0.902.
Same read-out and setting: the same measure for GATCAA: 0.987; for AGATGG: 0.876.
The sequence GGATCT came in with a binding signal of 1.07.
The same measure, in the same setting: the same measure for ACAGAA: 0.996.
The same measure, in the same setting: as for CTGTAG, the figure is 0.977.
Still for that read-out and setting: the same measure for CTTGAG: 0.982.
In turn, CAAGCT yielded a binding signal of 0.992.
The sequence GGATCA gave a binding signal of 0.772.
The same measure, in the same setting: as for AACGCG, the figure is 1.02.
The same measure, in the same setting: as for TGGGAC, the figure is 0.908; as for GGAATG, 0.839.
The same measure, in the same setting: the same measure for GTTGCG: 1.04.
In turn, GATTTG showed a binding signal of 1.15.
On the same count and under the same terms, as for AGCACG, the figure is 0.929; as for TCGAGT, 0.865; as for ATAGTG, 0.978.
On the same count and under the same terms, as for CGCTGT, the figure is 0.977.

The target in a further assay is ETV6 (UniProt P41212). Described as above. Particulars: 10 mM Tris-HCl pH 7.5, 50 mM NaCl, 1 mM DTT, 4% glycerol, room temperature, 30 min; GST-TFs on glutathione beads, 16-mer random dsDNA library, 0.1% …; high values mean tight binding; double strand, one strand shown; scale: fold enrichment (6-mer frequency, TF over GST control).
On to TAGCGC, for which the binding signal came to 0.904.
On the same count and under the same terms, the same measure for GTGTAC: 0.908.
For TCAGAC, the binding signal turned out to be 0.859.
On the same count and under the same terms, as for CAGATC, the figure is 0.951; as for CGGGCT, 0.99.
The same measure, in the same setting: as for TGGGTT, the figure is 1; as for TGAAGC, 1.01; as for CCTAAT, 1.31.
Still for that read-out and setting: the same measure for TGGTGG: 0.912; for GTGGTA: 0.877.
Sequence CCCTGA showed a binding signal of 1.05.
Turning to AGCCAC, the binding signal worked out at 0.926.
Same read-out and setting: the same measure for GATTGC: 0.954; for CGAAGA: 0.788; for GCAGAT: 0.903.
The same measure, in the same setting: the same measure for TCGCGA: 0.902; for TAAGTC: 0.91; for TCATAA: 1.
On the same count and under the same terms, as for CATTGG, the figure is 0.925; as for TCCAGA, 0.877; as for GTGATG, 0.839.
As for GATTAG, the binding signal is 0.771.
In turn, GATCAA had a binding signal of 1.07.
The same measure, in the same setting: the same measure for AGATGG: 0.941; for GGATCT: 0.917.
The sequence ACAGAA yielded a binding signal of 0.904.
CTGTAG showed a binding signal of 0.99.
Sequence CTTGAG returned a binding signal of 0.926.
On the same count and under the same terms, the same measure for CAAGCT: 0.972.
On the same count and under the same terms, the same measure for GGATCA: 0.851.
Still for that read-out and setting: the same measure for AACGCG: 1.01.
Consider TGGGAC, for which the binding signal was 0.87.
Regarding GGAATG, the binding signal is 0.828.
As for GTTGCG, the binding signal stood at 0.968.
On the same count and under the same terms, the same measure for GATTTG: 1.09; for AGCACG: 0.866; for TCGAGT: 0.885.
Still for that read-out and setting: the same measure for ATAGTG: 0.891.
On the same count and under the same terms, the same measure for CGCTGT: 0.958.
